Source: paper PMC12551140
No constants are given. Whether binding was seen depends on the method and setting. Binding seen in cells or lysates may run through a third protein. Some entries that bind do so weakly or less than the wild type. For some assays here: Sequences can lack the tags named with a protein. Values belong to the molecule of their own block, whether it stands above or below them.

Chains of the proteins cited; added tags and fusions are not shown.
UniProt Q99PP9: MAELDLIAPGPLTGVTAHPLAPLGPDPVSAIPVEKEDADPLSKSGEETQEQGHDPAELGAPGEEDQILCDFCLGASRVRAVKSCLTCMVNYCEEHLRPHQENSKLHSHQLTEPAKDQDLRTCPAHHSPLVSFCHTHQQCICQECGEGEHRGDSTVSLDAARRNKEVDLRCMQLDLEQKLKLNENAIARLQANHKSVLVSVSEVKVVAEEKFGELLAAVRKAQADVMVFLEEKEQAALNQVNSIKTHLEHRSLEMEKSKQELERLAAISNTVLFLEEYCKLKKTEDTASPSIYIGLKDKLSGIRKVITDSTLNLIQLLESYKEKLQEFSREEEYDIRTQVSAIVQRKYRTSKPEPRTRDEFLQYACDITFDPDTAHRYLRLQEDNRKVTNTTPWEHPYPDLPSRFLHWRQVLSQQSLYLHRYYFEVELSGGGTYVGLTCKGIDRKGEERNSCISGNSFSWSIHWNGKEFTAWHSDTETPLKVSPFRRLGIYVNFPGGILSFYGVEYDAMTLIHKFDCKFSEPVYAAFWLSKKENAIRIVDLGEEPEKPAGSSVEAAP

Assays:
[1] = biological target: T1, TRAF2, endogenous mouse (mouse (endogenous in RAW264.7 and mouse colon)) (UniProt P39429); test: co-IP; endogenous proteins in intestinal samples from mice treated with or without DSS; interaction weakened with DSS
T1 sequence: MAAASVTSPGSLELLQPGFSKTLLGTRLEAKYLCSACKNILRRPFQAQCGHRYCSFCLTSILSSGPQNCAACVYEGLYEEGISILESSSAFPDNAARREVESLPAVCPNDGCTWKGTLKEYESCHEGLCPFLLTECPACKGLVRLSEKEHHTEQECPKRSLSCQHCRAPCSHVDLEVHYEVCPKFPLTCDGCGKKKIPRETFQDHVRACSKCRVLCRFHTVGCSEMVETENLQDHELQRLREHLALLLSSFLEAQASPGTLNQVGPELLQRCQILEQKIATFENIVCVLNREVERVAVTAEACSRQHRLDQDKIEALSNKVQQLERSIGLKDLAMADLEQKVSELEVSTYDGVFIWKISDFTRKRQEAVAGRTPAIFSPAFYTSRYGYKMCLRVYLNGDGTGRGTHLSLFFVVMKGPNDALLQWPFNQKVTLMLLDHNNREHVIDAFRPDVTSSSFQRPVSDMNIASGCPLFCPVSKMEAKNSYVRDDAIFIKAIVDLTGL

[2] = biological target: T1, TRAF2, endogenous mouse (mouse (endogenous in RAW264.7 and mouse colon)); test: co-IP; endogenous proteins in RAW264.7 cell lysates; IP with anti-TRAF2 or anti-TRIM16 antibody on protein A/G beads, overnight at 4°C, western blotting; also cells treated with LPS (50 ng/mL), which diminished the interaction
[3] = biological target: T2, MYC-TRAF2 (tumour necrosis factor receptor-associated factor 2) (UniProt P39429); test: co-IP; HEK293T cells cotransfected with FLAG-TRIM16 and MYC-TRAF2; IP of lysates with an anti-MYC or anti-Flag antibody, western blotting
T2 sequence: T1 sequence

[4] = biological target: FLAG-TRIM16 (tripartite motif 16) (UniProt Q99PP9); test: as above
[5] = biological target: TRIM16, endogenous mouse (mouse (endogenous in RAW264.7 and mouse colon)) (UniProt Q99PP9); test: co-IP; endogenous proteins in RAW264.7 cell lysates; IP with anti-TRAF2 or anti-TRIM16 antibody on protein A/G beads, overnight at 4°C, western blotting; also cells treated with LPS (50 ng/mL), which diminished the interaction

binding [4]: binds
B1: MYC-TRAF2 (tumour necrosis factor receptor-associated factor 2) (protein, UniProt P39429 1-501)
chain: T1 sequence

binding [5]: binds
B2: TRAF2, endogenous mouse (protein, UniProt P39429 1-501)
chain: T1 sequence

More lines, now with the values behind:

Molecule: TRIM16, endogenous mouse (from UniProt Q99PP9 1-556)
binding [1]: binds | binding [2]: binds

Molecule: FLAG-TRIM16 (tripartite motif 16) (from UniProt Q99PP9 1-556)
binding [3]: binds
